{"source": "PubChem BioAssay AID1259308 (NCATS, 2017)", "purpose": "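Genes whose loss raises luciferase production in HEK293 cells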 (primary screen)", "cell system": "human HEK293 embryonic kidney cells stably expressing firefly luciferase (HEK-CMV-Luc2-Hygro)", "knock-down reagent": "single siRNA against human genes, 0.8 pmol siRNA per well", "timing": "72 h", "read-out": "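Luciferase light (ONE-Glo) measured on one replicate plate set and viability (CellTiter-Glo) on the other, scaled to a negative control siRNA, with robust z-scores and luciferase per cell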", "reading the numbers": "total luciferase, z-score: higher = more reporter protein produced", "rule for the call": "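An siRNA counts as active if its total luciferase robust z-score exceeds 3; genes with two or more such siRNAs out of three were retested with fresh siRNAs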", "calls": "active = raised luciferase; inactive = no rise", "note": "The deposit covers about 59,000 reagents; this is an unselected part. About 1,510 of them (2.6%) were called active. 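Calls use total luciferase alone and ignore viability, so some active siRNAs may act by altering cell number.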 A number with no mark means an inactive call. The numbers tell different reagents against one gene apart. Further read-outs or replicates are left out here."}
{"Gene": "HS6ST2 (heparan sulfate 6-O-sulfotransferase 2)", "siRNA no.": 1, "total luciferase, z-score": 1.95}
{"Gene": "HS6ST2 (heparan sulfate 6-O-sulfotransferase 2)", "siRNA no.": 2, "total luciferase, z-score": -1.68}
{"Gene": "HS6ST2 (heparan sulfate 6-O-sulfotransferase 2)", "siRNA no.": 3, "total luciferase, z-score": 0.0926}
{"Gene": "CCL26 (C-C motif chemokine ligand 26)", "siRNA no.": 1, "total luciferase, z-score": 1.36}
{"Gene": "CCL26 (C-C motif chemokine ligand 26)", "siRNA no.": 2, "total luciferase, z-score": -0.0151}
{"Gene": "CCL26 (C-C motif chemokine ligand 26)", "siRNA no.": 3, "total luciferase, z-score": -0.75}
{"Gene": "ZC3H11B (zinc finger CCCH-type containing 11B)", "siRNA no.": 1, "total luciferase, z-score": 0.595}
{"Gene": "ZC3H11B (zinc finger CCCH-type containing 11B)", "siRNA no.": 2, "total luciferase, z-score": -2.56}
{"Gene": "ZC3H11B (zinc finger CCCH-type containing 11B)", "siRNA no.": 3, "total luciferase, z-score": 0.805}
{"Gene": "MYL4 (myosin light chain 4)", "siRNA no.": 1, "total luciferase, z-score": -0.163}
{"Gene": "MYL4 (myosin light chain 4)", "siRNA no.": 2, "total luciferase, z-score": -0.61}
{"Gene": "MYL4 (myosin light chain 4)", "siRNA no.": 3, "total luciferase, z-score": 1.89}
{"Gene": "FGF17 (fibroblast growth factor 17)", "siRNA no.": 1, "total luciferase, z-score": 1.75}
{"Gene": "FGF17 (fibroblast growth factor 17)", "siRNA no.": 2, "total luciferase, z-score": 0.504}
{"Gene": "FGF17 (fibroblast growth factor 17)", "siRNA no.": 3, "total luciferase, z-score": -1.86}
{"Gene": "TESK1 (testis associated actin remodelling kinase 1)", "siRNA no.": 1, "total luciferase, z-score": 0.777}
{"Gene": "TESK1 (testis associated actin remodelling kinase 1)", "siRNA no.": 2, "total luciferase, z-score": 1.57}
{"Gene": "TESK1 (testis associated actin remodelling kinase 1)", "siRNA no.": 3, "total luciferase, z-score": 0.0827}
{"Gene": "COL4A5 (collagen type IV alpha 5 chain)", "siRNA no.": 1, "total luciferase, z-score": -0.804}
{"Gene": "COL4A5 (collagen type IV alpha 5 chain)", "siRNA no.": 2, "total luciferase, z-score": -0.618}
{"Gene": "COL4A5 (collagen type IV alpha 5 chain)", "siRNA no.": 3, "total luciferase, z-score": 0.74}
{"Gene": "ZNF383 (zinc finger protein 383)", "siRNA no.": 1, "total luciferase, z-score": 0.0694}
{"Gene": "ZNF383 (zinc finger protein 383)", "siRNA no.": 2, "total luciferase, z-score": 0.756}
{"Gene": "ZNF383 (zinc finger protein 383)", "siRNA no.": 3, "total luciferase, z-score": 0.0673}
{"Gene": "CDHR1 (cadherin related family member 1)", "siRNA no.": 1, "total luciferase, z-score": -0.304}
{"Gene": "CDHR1 (cadherin related family member 1)", "siRNA no.": 2, "total luciferase, z-score": 1.32}
{"Gene": "CDHR1 (cadherin related family member 1)", "siRNA no.": 3, "total luciferase, z-score": -0.935}
{"Gene": "FGFR1OP2 (FGFR1 oncogene partner 2)", "siRNA no.": 1, "total luciferase, z-score": 0.96}
{"Gene": "FGFR1OP2 (FGFR1 oncogene partner 2)", "siRNA no.": 2, "total luciferase, z-score": 0.995}
{"Gene": "FGFR1OP2 (FGFR1 oncogene partner 2)", "siRNA no.": 3, "total luciferase, z-score": -1.67}
{"Gene": "CLEC19A (C-type lectin domain containing 19A)", "siRNA no.": 1, "total luciferase, z-score": -1.15}
{"Gene": "CLEC19A (C-type lectin domain containing 19A)", "siRNA no.": 2, "total luciferase, z-score": 2.39}
{"Gene": "CLEC19A (C-type lectin domain containing 19A)", "siRNA no.": 3, "total luciferase, z-score": 1.65}

Quoted from the listing, 5 entries:
{"Gene": "CDHR1 (cadherin related family member 1)", "siRNA no.": 2, "total luciferase, z-score": 1.32}
{"Gene": "CDHR1 (cadherin related family member 1)", "siRNA no.": 3, "total luciferase, z-score": -0.935}
{"Gene": "FGFR1OP2 (FGFR1 oncogene partner 2)", "siRNA no.": 1, "total luciferase, z-score": 0.96}
{"Gene": "FGFR1OP2 (FGFR1 oncogene partner 2)", "siRNA no.": 2, "total luciferase, z-score": 0.995}
{"Gene": "FGFR1OP2 (FGFR1 oncogene partner 2)", "siRNA no.": 3, "total luciferase, z-score": -1.67}
